Data as given in paper PMC10701771.
Results are given in words; binding and its absence hold for the method and conditions named. Binding seen in cells or lysates may run through a third protein. Some entries that bind do so weakly or less than the wild type.

The chains behind the UniProt entries cited, without tags or fusion partners.
UniProt Q09472: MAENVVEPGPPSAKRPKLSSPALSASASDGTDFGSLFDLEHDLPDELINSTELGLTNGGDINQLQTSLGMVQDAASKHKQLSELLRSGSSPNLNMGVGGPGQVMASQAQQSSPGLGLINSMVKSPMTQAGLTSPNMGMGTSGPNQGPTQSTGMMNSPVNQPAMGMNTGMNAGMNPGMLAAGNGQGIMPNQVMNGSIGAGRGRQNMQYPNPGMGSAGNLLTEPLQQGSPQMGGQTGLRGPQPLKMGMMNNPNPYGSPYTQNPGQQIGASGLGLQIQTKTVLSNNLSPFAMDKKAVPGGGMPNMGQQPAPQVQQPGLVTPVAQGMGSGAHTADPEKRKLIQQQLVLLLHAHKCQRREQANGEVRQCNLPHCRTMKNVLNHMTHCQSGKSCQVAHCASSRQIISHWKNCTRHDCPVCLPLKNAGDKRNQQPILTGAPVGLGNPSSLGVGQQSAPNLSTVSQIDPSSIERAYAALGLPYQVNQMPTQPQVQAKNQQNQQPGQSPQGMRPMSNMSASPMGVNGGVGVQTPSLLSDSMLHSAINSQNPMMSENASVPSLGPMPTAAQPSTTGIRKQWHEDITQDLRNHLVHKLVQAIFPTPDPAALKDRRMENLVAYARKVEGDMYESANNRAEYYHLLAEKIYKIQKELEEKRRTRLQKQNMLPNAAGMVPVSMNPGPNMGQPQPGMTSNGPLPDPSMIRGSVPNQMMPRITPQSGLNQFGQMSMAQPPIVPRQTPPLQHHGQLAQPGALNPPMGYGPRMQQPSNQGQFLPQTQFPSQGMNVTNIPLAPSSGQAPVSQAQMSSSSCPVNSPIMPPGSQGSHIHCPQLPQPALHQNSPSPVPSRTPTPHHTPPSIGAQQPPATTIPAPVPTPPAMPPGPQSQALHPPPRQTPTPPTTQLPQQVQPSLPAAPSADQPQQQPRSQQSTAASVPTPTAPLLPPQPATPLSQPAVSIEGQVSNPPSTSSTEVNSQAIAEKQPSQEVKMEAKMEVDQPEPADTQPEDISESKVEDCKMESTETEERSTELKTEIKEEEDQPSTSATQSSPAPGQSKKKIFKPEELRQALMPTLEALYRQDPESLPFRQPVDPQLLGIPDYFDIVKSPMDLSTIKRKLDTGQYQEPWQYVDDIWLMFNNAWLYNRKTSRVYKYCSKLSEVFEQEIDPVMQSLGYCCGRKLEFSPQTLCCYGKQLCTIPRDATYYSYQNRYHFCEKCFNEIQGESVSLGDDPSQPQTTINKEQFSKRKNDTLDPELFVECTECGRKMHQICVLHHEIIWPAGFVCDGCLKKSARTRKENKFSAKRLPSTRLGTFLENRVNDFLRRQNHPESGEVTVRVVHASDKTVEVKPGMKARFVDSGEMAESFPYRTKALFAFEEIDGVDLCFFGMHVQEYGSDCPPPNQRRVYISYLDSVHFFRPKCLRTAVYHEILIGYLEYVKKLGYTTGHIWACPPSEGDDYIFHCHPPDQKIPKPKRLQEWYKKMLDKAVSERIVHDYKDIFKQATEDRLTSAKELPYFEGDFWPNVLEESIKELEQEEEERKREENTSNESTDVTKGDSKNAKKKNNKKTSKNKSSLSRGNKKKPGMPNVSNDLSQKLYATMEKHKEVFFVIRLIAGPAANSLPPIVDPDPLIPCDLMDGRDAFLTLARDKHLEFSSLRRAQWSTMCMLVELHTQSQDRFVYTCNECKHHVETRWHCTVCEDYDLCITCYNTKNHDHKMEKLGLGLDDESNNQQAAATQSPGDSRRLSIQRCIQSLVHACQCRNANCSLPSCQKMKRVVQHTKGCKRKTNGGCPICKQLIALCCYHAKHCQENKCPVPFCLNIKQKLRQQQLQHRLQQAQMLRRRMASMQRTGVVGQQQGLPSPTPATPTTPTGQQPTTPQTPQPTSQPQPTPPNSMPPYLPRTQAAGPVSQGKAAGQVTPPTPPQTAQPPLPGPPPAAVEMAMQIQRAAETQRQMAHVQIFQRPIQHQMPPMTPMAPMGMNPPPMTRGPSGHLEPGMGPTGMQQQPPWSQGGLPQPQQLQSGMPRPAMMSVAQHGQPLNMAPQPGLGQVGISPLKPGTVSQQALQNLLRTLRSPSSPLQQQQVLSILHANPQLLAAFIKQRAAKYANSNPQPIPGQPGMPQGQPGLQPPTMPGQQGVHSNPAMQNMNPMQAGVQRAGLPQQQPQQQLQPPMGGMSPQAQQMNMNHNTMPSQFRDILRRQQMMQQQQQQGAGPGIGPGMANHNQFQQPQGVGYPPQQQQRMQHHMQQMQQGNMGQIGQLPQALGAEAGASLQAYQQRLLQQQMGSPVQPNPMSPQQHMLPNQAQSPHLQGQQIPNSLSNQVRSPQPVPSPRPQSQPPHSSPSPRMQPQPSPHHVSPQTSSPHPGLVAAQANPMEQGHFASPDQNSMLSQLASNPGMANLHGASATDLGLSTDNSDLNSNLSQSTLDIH
UniProt Q9Y4X4: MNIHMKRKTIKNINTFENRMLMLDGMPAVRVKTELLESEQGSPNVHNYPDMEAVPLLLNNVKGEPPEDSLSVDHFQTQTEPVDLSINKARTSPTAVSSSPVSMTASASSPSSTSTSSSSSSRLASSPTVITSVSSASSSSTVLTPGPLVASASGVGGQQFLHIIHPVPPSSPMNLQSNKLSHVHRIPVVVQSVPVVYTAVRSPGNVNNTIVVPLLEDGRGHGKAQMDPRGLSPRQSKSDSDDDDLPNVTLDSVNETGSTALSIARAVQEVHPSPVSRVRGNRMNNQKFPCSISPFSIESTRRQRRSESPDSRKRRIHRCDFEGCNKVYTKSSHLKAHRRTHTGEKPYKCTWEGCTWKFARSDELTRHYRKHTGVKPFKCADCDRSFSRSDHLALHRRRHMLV

Target: P300, a histone acetyltransferase (human (endogenous in NCI-H460)) (UniProt Q09472)
Test: co-IP; co-IP with P300 antibody in NCI-H460 cells, followed by immunoblotting with the KLF12 antibody; endogenous proteins

## Krüpple-like factor 12 (KLF12) (from UniProt Q9Y4X4 1-402)
  binding: binds
